Laboratory results from the supplement of paper PMC6411743.
± gives the standard deviation of the averaged measurements. The list shows a part of the results.

Chains of the proteins cited; added tags and fusions are not shown. Lines headed by an entry give the natural chain unless they say otherwise; changes in a name come on top.
UniProt Q96BZ8: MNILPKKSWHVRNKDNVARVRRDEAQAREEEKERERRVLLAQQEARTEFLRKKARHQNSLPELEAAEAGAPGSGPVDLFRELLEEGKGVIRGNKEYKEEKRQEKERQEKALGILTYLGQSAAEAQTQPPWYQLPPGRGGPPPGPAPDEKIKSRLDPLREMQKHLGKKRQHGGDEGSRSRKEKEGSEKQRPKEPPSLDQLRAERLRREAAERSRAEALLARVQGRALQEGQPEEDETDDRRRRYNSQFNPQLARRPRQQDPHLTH
UniProt Q96CS2: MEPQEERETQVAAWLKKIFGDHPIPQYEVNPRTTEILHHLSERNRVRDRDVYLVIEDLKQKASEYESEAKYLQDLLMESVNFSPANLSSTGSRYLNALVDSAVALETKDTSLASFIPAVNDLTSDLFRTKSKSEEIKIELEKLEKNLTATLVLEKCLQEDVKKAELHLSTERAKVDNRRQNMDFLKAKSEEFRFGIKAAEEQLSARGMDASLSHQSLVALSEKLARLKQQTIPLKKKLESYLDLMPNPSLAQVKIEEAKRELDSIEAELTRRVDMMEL
UniProt Q96AE4: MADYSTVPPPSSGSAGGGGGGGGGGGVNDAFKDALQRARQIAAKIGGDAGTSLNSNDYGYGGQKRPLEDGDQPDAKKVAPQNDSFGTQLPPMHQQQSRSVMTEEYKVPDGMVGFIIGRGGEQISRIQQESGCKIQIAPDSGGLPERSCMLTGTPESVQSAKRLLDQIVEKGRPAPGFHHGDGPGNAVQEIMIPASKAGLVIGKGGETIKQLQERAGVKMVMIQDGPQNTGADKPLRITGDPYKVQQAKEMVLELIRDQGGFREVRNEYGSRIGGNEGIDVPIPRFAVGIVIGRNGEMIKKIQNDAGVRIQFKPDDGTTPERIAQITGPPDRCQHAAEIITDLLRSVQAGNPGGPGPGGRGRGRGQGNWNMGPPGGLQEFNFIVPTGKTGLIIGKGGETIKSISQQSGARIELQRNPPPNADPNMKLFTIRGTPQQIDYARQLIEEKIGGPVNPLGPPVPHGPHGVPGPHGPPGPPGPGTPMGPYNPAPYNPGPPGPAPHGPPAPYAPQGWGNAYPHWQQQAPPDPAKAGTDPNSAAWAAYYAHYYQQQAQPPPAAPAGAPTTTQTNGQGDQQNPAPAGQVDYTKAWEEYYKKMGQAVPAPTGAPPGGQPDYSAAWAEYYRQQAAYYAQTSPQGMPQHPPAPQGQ
UniProt Q96G46: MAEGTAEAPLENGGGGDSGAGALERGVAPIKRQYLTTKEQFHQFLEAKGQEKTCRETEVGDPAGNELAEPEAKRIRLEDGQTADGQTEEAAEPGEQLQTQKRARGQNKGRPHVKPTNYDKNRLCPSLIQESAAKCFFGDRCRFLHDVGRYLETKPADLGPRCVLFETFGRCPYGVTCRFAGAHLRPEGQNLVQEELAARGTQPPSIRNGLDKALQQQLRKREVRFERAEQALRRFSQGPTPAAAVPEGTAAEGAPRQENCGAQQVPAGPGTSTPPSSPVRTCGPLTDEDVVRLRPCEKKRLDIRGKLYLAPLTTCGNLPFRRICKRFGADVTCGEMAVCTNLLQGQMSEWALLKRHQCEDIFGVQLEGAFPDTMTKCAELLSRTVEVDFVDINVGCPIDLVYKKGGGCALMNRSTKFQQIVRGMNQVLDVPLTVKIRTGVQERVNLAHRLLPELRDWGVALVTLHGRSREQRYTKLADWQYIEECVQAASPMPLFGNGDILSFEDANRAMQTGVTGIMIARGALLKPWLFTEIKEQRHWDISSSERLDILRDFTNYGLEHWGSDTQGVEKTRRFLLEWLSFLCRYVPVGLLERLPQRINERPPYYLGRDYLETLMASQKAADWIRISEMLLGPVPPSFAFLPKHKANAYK
UniProt Q96JC1: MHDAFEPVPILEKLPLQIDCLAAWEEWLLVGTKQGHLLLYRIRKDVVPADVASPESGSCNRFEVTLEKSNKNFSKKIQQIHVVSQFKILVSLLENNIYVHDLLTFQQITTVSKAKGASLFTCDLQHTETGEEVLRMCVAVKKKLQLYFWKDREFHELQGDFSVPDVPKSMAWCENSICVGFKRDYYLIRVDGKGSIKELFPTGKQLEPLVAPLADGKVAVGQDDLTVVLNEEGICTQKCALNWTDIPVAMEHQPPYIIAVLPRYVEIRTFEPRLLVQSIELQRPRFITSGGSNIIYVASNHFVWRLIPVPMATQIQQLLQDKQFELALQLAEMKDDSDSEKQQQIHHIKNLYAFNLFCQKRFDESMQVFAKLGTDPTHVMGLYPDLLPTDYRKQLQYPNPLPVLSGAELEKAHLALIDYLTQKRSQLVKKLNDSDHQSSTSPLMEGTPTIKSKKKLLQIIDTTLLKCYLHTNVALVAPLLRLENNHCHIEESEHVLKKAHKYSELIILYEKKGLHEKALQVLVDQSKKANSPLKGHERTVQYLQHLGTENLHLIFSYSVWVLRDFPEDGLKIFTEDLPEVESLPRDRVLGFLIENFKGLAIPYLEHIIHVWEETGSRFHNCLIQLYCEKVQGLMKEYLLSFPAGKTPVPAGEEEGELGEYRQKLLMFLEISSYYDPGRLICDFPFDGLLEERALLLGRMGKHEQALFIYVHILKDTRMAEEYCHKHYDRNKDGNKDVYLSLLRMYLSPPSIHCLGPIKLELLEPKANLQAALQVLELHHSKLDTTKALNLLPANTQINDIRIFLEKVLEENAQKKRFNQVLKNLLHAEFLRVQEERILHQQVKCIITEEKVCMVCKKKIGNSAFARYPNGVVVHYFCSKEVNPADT
UniProt Q92733: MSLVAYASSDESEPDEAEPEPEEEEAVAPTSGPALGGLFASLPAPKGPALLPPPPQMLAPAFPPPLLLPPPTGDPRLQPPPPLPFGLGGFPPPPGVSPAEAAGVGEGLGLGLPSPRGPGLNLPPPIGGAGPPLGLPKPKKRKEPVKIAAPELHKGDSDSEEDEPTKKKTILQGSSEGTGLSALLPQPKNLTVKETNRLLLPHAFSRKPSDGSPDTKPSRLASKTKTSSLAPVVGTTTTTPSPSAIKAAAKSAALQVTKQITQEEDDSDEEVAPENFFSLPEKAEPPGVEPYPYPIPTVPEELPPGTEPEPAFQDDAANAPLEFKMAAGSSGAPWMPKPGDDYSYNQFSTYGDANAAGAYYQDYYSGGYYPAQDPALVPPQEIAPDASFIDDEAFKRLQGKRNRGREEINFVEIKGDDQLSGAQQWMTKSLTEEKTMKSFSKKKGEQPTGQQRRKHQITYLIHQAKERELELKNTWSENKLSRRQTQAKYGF
UniProt Q8WWH5: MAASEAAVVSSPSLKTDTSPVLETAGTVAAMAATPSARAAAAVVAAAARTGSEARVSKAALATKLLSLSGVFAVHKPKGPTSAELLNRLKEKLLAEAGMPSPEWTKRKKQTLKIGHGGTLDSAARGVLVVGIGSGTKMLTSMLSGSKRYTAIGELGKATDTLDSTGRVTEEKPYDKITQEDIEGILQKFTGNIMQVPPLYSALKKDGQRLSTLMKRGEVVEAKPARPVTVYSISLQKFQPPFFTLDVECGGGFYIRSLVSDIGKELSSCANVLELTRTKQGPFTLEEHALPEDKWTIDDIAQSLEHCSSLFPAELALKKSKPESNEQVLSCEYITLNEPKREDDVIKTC
UniProt Q92598: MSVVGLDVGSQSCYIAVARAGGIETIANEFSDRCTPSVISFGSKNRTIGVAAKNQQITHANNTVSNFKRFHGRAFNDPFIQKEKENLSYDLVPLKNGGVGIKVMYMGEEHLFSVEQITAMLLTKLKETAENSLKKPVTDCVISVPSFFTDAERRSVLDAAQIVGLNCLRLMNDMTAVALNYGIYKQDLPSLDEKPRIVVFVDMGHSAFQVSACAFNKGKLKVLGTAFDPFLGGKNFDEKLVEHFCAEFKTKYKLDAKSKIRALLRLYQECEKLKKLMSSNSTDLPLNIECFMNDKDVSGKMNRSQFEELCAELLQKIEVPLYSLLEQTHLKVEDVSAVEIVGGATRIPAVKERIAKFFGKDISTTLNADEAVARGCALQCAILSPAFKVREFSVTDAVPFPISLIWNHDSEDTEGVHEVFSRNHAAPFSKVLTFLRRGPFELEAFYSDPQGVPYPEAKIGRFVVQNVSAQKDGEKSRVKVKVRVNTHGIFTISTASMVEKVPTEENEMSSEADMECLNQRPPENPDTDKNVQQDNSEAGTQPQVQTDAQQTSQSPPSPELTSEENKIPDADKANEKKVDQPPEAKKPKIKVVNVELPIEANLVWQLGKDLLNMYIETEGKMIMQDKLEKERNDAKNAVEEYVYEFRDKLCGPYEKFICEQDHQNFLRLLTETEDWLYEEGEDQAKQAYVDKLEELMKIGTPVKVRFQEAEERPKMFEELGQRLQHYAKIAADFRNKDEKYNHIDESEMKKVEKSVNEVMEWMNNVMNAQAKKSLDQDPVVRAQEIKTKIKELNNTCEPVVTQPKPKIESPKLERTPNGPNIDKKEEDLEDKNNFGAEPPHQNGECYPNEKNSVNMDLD
UniProt Q96B01: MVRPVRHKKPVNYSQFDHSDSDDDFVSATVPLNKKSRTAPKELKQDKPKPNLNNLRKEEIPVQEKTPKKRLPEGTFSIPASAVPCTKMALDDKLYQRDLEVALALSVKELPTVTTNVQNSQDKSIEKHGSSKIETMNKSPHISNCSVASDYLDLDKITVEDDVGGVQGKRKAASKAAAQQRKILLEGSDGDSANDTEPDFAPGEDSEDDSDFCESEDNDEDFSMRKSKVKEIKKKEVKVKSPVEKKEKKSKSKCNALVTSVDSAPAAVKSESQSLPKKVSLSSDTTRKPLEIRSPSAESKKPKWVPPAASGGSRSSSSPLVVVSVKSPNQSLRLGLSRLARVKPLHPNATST
UniProt Q96JM7: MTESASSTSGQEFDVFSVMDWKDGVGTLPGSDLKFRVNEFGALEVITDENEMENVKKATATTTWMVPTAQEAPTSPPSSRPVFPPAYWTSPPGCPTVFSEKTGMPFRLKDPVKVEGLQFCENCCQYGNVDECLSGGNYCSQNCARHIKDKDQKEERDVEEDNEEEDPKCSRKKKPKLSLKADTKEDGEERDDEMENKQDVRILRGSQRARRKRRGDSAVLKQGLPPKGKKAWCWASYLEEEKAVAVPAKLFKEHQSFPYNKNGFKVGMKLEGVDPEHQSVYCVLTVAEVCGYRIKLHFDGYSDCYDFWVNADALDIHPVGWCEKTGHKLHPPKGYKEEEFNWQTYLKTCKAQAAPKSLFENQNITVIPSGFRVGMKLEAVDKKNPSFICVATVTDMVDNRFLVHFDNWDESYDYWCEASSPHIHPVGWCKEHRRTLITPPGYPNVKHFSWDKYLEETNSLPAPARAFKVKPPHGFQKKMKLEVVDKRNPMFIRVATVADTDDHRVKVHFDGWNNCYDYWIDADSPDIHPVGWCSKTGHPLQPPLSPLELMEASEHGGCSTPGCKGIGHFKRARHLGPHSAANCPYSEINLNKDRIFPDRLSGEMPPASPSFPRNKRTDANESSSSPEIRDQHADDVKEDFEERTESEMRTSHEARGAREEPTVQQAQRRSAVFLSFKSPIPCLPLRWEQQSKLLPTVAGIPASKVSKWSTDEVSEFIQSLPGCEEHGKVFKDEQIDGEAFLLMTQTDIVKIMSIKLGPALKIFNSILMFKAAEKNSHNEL
UniProt Q96ER9: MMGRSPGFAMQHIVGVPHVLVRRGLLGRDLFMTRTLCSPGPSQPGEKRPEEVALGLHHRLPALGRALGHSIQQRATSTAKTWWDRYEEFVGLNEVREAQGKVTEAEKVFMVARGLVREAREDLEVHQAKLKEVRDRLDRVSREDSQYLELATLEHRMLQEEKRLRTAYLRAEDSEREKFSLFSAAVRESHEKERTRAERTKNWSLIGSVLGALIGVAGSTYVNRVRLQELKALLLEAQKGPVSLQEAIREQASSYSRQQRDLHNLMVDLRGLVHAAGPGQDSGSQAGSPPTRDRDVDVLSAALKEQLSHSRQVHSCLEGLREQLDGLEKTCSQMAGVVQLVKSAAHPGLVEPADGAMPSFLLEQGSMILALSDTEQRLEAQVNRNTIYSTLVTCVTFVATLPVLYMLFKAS
UniProt Q96CT7: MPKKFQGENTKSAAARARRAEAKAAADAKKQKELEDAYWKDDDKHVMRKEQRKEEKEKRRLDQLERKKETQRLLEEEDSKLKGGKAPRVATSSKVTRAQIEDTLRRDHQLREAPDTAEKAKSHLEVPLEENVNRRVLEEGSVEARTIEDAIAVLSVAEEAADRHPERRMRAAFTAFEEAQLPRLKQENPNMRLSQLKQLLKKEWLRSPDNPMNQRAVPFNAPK

Compound: Nc1nc2c(ncn2[C@@H]2O[C@H](COP(=O)(O)OP(=O)(O)OP(=O)(O)O)[C@@H](O)[C@H]2O)c(=O)[nH]1 [guanosine triphosphate]
Assay: NP40-soluble protein abundance relative to vehicle (solubility fold change) (ratio); higher = more soluble protein in presence of GTP
Method in brief: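 Eight concentrations, 0.1 to 10 mM, were tested on Jurkat crude lysate for 10 min at room temperature and then 3 min at 37 °C, in three independent experiments. The lysate was solubilised with 0.8% NP40 and benzonase, ultracentrifuged, and the supernatant TMT-labelled for LC-MS/MS. Each value is the fold change against the detergent-processed vehicle in its own replicate, from vsn-normalised intensities.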

LENG1 (UniProt Q96BZ8)
NP40-soluble protein abundance (concentration: 0.1mM): 1.06 ± 0.072 | NP40-soluble protein abundance (concentration: 0.5mM): 0.886 ± 0.1 | NP40-soluble protein abundance (concentration: 1mM): 1.11 ± 0.062 | NP40-soluble protein abundance (concentration: 2mM): 1.21 ± 0.14 | NP40-soluble protein abundance (concentration: 4mM): 1.34 ± 0.086 | NP40-soluble protein abundance (concentration: 6mM): 1.27 ± 0.12 | NP40-soluble protein abundance (concentration: 8mM): 1.1 ± 0.18 | NP40-soluble protein abundance (concentration: 10mM): 1.48 ± 0.078

UniProt Q96CS2 and related entries
NP40-soluble protein abundance (concentration: 0.1mM): 1.03 ± 0.17 | NP40-soluble protein abundance (concentration: 0.5mM): 0.915 ± 0.15 | NP40-soluble protein abundance (concentration: 1mM): 1.24 ± 0.32 | NP40-soluble protein abundance (concentration: 2mM): 1.19 ± 0.11 | NP40-soluble protein abundance (concentration: 4mM): 1.09 ± 0.17 | NP40-soluble protein abundance (concentration: 6mM): 1.21 ± 0.12 | NP40-soluble protein abundance (concentration: 8mM): 1.06 ± 0.22 | NP40-soluble protein abundance (concentration: 10mM): 1.39 ± 0.58

UniProt Q96AE4 and related entries
NP40-soluble protein abundance (concentration: 0.1mM): 0.895 ± 0.039 | NP40-soluble protein abundance (concentration: 0.5mM): 0.878 ± 0.075 | NP40-soluble protein abundance (concentration: 1mM): 0.93 ± 0.065 | NP40-soluble protein abundance (concentration: 2mM): 0.886 ± 0.1 | NP40-soluble protein abundance (concentration: 4mM): 0.877 ± 0.073 | NP40-soluble protein abundance (concentration: 6mM): 0.89 ± 0.086 | NP40-soluble protein abundance (concentration: 8mM): 0.869 ± 0.08 | NP40-soluble protein abundance (concentration: 10mM): 0.903 ± 0.07

DUS3L (UniProt Q96G46)
NP40-soluble protein abundance (concentration: 0.1mM): 0.946 ± 0.017 | NP40-soluble protein abundance (concentration: 0.5mM): 0.973 ± 0.027 | NP40-soluble protein abundance (concentration: 1mM): 0.957 ± 0.049 | NP40-soluble protein abundance (concentration: 2mM): 0.947 ± 0.049 | NP40-soluble protein abundance (concentration: 4mM): 0.922 ± 0.043 | NP40-soluble protein abundance (concentration: 6mM): 0.926 ± 0.051 | NP40-soluble protein abundance (concentration: 8mM): 0.921 ± 0.026 | NP40-soluble protein abundance (concentration: 10mM): 0.933 ± 0.029

UniProt Q96JC1 and related entries
NP40-soluble protein abundance (concentration: 0.1mM): 1.1 ± 0.05 | NP40-soluble protein abundance (concentration: 0.5mM): 1.07 ± 0.11 | NP40-soluble protein abundance (concentration: 1mM): 1.17 ± 0.1 | NP40-soluble protein abundance (concentration: 2mM): 1.17 ± 0.13 | NP40-soluble protein abundance (concentration: 4mM): 1.15 ± 0.13 | NP40-soluble protein abundance (concentration: 6mM): 1.17 ± 0.15 | NP40-soluble protein abundance (concentration: 8mM): 1.22 ± 0.068 | NP40-soluble protein abundance (concentration: 10mM): 1.09 ± 0.1

PRCC (UniProt Q92733)
NP40-soluble protein abundance (concentration: 0.1mM): 0.958 ± 0.012 | NP40-soluble protein abundance (concentration: 0.5mM): 0.947 ± 0.051 | NP40-soluble protein abundance (concentration: 1mM): 1.05 ± 0.033 | NP40-soluble protein abundance (concentration: 2mM): 0.992 ± 0.071 | NP40-soluble protein abundance (concentration: 4mM): 0.953 ± 0.057 | NP40-soluble protein abundance (concentration: 6mM): 0.939 ± 0.084 | NP40-soluble protein abundance (concentration: 8mM): 0.948 ± 0.042 | NP40-soluble protein abundance (concentration: 10mM): 0.938 ± 0.026

TRUB1 (UniProt Q8WWH5)
NP40-soluble protein abundance (concentration: 0.1mM): 0.98 ± 0.017 | NP40-soluble protein abundance (concentration: 0.5mM): 0.959 ± 0.026 | NP40-soluble protein abundance (concentration: 1mM): 0.963 ± 0.059 | NP40-soluble protein abundance (concentration: 2mM): 0.938 ± 0.054 | NP40-soluble protein abundance (concentration: 4mM): 0.926 ± 0.052 | NP40-soluble protein abundance (concentration: 6mM): 0.925 ± 0.076 | NP40-soluble protein abundance (concentration: 8mM): 0.91 ± 0.065 | NP40-soluble protein abundance (concentration: 10mM): 0.894 ± 0.051

UniProt Q92598 and related entries
NP40-soluble protein abundance (concentration: 0.1mM): 0.955 ± 0.058 | NP40-soluble protein abundance (concentration: 0.5mM): 0.974 ± 0.057 | NP40-soluble protein abundance (concentration: 1mM): 0.984 ± 0.06 | NP40-soluble protein abundance (concentration: 2mM): 0.934 ± 0.074 | NP40-soluble protein abundance (concentration: 4mM): 0.932 ± 0.064 | NP40-soluble protein abundance (concentration: 6mM): 0.929 ± 0.058 | NP40-soluble protein abundance (concentration: 8mM): 0.951 ± 0.059 | NP40-soluble protein abundance (concentration: 10mM): 0.945 ± 0.074

UniProt Q92581 and related entries
NP40-soluble protein abundance (concentration: 0.1mM): 1.01 ± 0.1 | NP40-soluble protein abundance (concentration: 0.5mM): 1.02 ± 0.035 | NP40-soluble protein abundance (concentration: 1mM): 0.915 ± 0.077 | NP40-soluble protein abundance (concentration: 2mM): 0.899 ± 0.07 | NP40-soluble protein abundance (concentration: 4mM): 0.941 ± 0.074 | NP40-soluble protein abundance (concentration: 6mM): 0.923 ± 0.073 | NP40-soluble protein abundance (concentration: 8mM): 0.88 ± 0.055 | NP40-soluble protein abundance (concentration: 10mM): 0.942 ± 0.053

UniProt Q96B01 and related entries
NP40-soluble protein abundance (concentration: 0.1mM): 0.9 ± 0.07 | NP40-soluble protein abundance (concentration: 0.5mM): 0.902 ± 0.078 | NP40-soluble protein abundance (concentration: 1mM): 0.922 ± 0.12 | NP40-soluble protein abundance (concentration: 2mM): 0.97 ± 0.096 | NP40-soluble protein abundance (concentration: 4mM): 0.942 ± 0.15 | NP40-soluble protein abundance (concentration: 6mM): 1.02 ± 0.13 | NP40-soluble protein abundance (concentration: 8mM): 1.02 ± 0.13 | NP40-soluble protein abundance (concentration: 10mM): 1.03 ± 0.1

UniProt Q96B36 and related entries
NP40-soluble protein abundance (concentration: 0.1mM): 0.849 ± 0.034 | NP40-soluble protein abundance (concentration: 0.5mM): 0.763 ± 0.064 | NP40-soluble protein abundance (concentration: 1mM): 0.894 ± 0.02 | NP40-soluble protein abundance (concentration: 2mM): 0.842 ± 0.015 | NP40-soluble protein abundance (concentration: 4mM): 0.7714 ± 0.007 | NP40-soluble protein abundance (concentration: 6mM): 0.7802 ± 0.0027 | NP40-soluble protein abundance (concentration: 8mM): 0.748 ± 0.12 | NP40-soluble protein abundance (concentration: 10mM): 0.831 ± 0.028

UniProt Q96JM7 and related entries
NP40-soluble protein abundance (concentration: 0.1mM): 1.13 ± 0.15 | NP40-soluble protein abundance (concentration: 0.5mM): 1.14 ± 0.016 | NP40-soluble protein abundance (concentration: 1mM): 1.08 ± 0.16 | NP40-soluble protein abundance (concentration: 2mM): 1.13 ± 0.078 | NP40-soluble protein abundance (concentration: 4mM): 1.1 ± 0.2 | NP40-soluble protein abundance (concentration: 6mM): 1.23 ± 0.031 | NP40-soluble protein abundance (concentration: 8mM): 1.11 ± 0.056 | NP40-soluble protein abundance (concentration: 10mM): 1.15 ± 0.073

CCDC51 (UniProt Q96ER9)
NP40-soluble protein abundance (concentration: 0.1mM): 1.08 ± 0.094 | NP40-soluble protein abundance (concentration: 0.5mM): 1.07 ± 0.034 | NP40-soluble protein abundance (concentration: 1mM): 1.17 ± 0.091 | NP40-soluble protein abundance (concentration: 2mM): 1.05 ± 0.048 | NP40-soluble protein abundance (concentration: 4mM): 1.14 ± 0.067 | NP40-soluble protein abundance (concentration: 6mM): 1.11 ± 0.051 | NP40-soluble protein abundance (concentration: 8mM): 1.06 ± 0.084 | NP40-soluble protein abundance (concentration: 10mM): 1.07 ± 0.058

CCDC124 (UniProt Q96CT7)
NP40-soluble protein abundance (concentration: 0.1mM): 1.01 ± 0.047 | NP40-soluble protein abundance (concentration: 0.5mM): 0.984 ± 0.019 | NP40-soluble protein abundance (concentration: 1mM): 1.12 ± 0.063 | NP40-soluble protein abundance (concentration: 2mM): 1.17 ± 0.067 | NP40-soluble protein abundance (concentration: 4mM): 1.41 ± 0.17 | NP40-soluble protein abundance (concentration: 6mM): 1.57 ± 0.22 | NP40-soluble protein abundance (concentration: 8mM): 1.61 ± 0.22 | NP40-soluble protein abundance (concentration: 10mM): 2.24 ± 0.18

COPS5 (UniProt Q92905)
NP40-soluble protein abundance (concentration: 0.1mM): 1.05 ± 0.025 | NP40-soluble protein abundance (concentration: 0.5mM): 1.04 ± 0.047 | NP40-soluble protein abundance (concentration: 1mM): 1.05 ± 0.032 | NP40-soluble protein abundance (concentration: 2mM): 1.04 ± 0.044 | NP40-soluble protein abundance (concentration: 4mM): 1.03 ± 0.046 | NP40-soluble protein abundance (concentration: 6mM): 1 ± 0.076 | NP40-soluble protein abundance (concentration: 8mM): 1 ± 0.048 | NP40-soluble protein abundance (concentration: 10mM): 0.976 ± 0.057

UniProt Q93008 and related entries
NP40-soluble protein abundance (concentration: 0.1mM): 1.08 ± 0.054 | NP40-soluble protein abundance (concentration: 0.5mM): 1.09 ± 0.087 | NP40-soluble protein abundance (concentration: 1mM): 1 ± 0.062 | NP40-soluble protein abundance (concentration: 2mM): 1.06 ± 0.12 | NP40-soluble protein abundance (concentration: 4mM): 1.04 ± 0.091 | NP40-soluble protein abundance (concentration: 6mM): 1.01 ± 0.09 | NP40-soluble protein abundance (concentration: 8mM): 0.992 ± 0.071 | NP40-soluble protein abundance (concentration: 10mM): 0.975 ± 0.089
